The list shows a part of the results.
What was measured:
Assay in all cases: glycan array binding signal (z-score within array); higher = stronger binding
Details in all cases: glycan notation: IUPAC condensed, linker removed
[1] = target: Fuc(a1-2)Gal(b1-4)GlcNAc(b1-3)Gal(b1-4)GlcNAc(b1-2)Man(a1-3)[Fuc(a1-2)Gal(b1-4)GlcNAc(b1-3)Gal(b1-4)GlcNAc(b1-2)Man(a1-6)]Man(b1-4)GlcNAc(b1-4)GlcNAc
In short: (§1)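 Glycan array data were curated from 3228 arrays in the Consortium for Functional Glycomics database and kept only where the protein sequence was available. Glycan names were converted to IUPAC-condensed notation, and columns mapping to the same glycan were averaged. The binding signal is a within-array Z-score, averaged across arrays of the same protein sequence at different concentrations or buffers and across linkers. Negative Z-scores can be read as non-binding.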

[2] = target: Fuc(a1-2)Gal(b1-4)GlcNAc(b1-3)Gal(b1-4)GlcNAc(b1-3)Gal(b1-4)GlcNAc
In short: as §1

[3] = target: Fuc(a1-2)Gal(b1-4)GlcNAc(b1-3)GalNAc
In short: as §1

[4] = target: Fuc(a1-2)Gal(b1-4)GlcNAc(b1-3)[Fuc(a1-2)Gal(b1-4)GlcNAc(b1-6)]GalNAc
In short: as §1

[5] = target: Fuc(a1-2)Gal(b1-4)GlcNAc(b1-3)[Fuc(a1-3)[Gal(b1-4)]GlcNAc(b1-6)]Gal(b1-4)Glc
In short: as §1

[6] = target: Fuc(a1-2)Gal(b1-4)GlcNAc(b1-6)GalNAc
In short: as §1

[7] = target: Fuc(a1-2)Gal(b1-4)GlcNAc6S
In short: as §1

[8] = target: Fuc(a1-2)Gal(b1-4)[Fuc(a1-3)]GlcNAc
In short: as §1

[9] = target: Fuc(a1-2)Gal(b1-4)[Fuc(a1-3)]GlcNAc(b1-2)Man(a1-3)[Fuc(a1-2)Gal(b1-4)[Fuc(a1-3)]GlcNAc(b1-2)Man(a1-6)]Man(b1-4)GlcNAc(b1-4)[Fuc(a1-6)]GlcNAc
In short: as §1

[10] = target: Fuc(a1-2)Gal(b1-4)[Fuc(a1-3)]GlcNAc(b1-2)[Fuc(a1-2)Gal(b1-4)[Fuc(a1-3)]GlcNAc(b1-4)]Man(a1-3)[Fuc(a1-2)Gal(b1-4)[Fuc(a1-3)]GlcNAc(b1-2)Man(a1-6)]Man(b1-4)GlcNAc(b1-4)GlcNAc
In short: as §1

[11] = target: Fuc(a1-2)Gal(b1-4)[Fuc(a1-3)]GlcNAc(b1-3)Gal(b1-4)[Fuc(a1-3)]GlcNAc
In short: as §1

[12] = target: Fuc(a1-2)Gal(b1-4)[Fuc(a1-3)]GlcNAc(b1-3)Gal(b1-4)[Fuc(a1-3)]GlcNAc(b1-3)Gal(b1-4)[Fuc(a1-3)]GlcNAc
In short: as §1

[13] = target: Fuc(a1-2)Gal(b1-4)[Fuc(a1-3)]GlcNAc(b1-3)GalNAc
In short: as §1

[14] = target: Fuc(a1-2)Gal(b1-4)[Fuc(a1-3)]GlcNAc(b1-3)[Neu5Ac(a2-6)Gal(b1-4)GlcNAc(b1-6)]Gal(b1-4)Glc
In short: as §1

[15] = target: Fuc(a1-2)Gal3S(b1-4)GlcNAc
In short: as §1

[16] = target: Fuc(a1-2)Gal6S(b1-3)GlcNAc
In short: as §1

[17] = target: Fuc(a1-2)Gal6S(b1-3)GlcNAc6S
In short: as §1

Fuc(a1-2)Gal6S(b1-4)Glc = target: Fuc(a1-2)Gal6S(b1-4)Glc
In short: as §1

[18] = target: Fuc(a1-2)Gal6S(b1-4)Glc6S
In short: as §1

Fuc(a1-2)[Gal(a1-3)]Gal = target: Fuc(a1-2)[Gal(a1-3)]Gal
In short: as §1

[19] = target: Fuc(a1-2)[Gal(a1-3)]Gal(b1-3)GalNAc
In short: as §1

[20] = target: Fuc(a1-2)[Gal(a1-3)]Gal(b1-3)GalNAc(b1-3)Gal(a1-4)Gal(b1-4)Glc
In short: as §1

[21] = target: Fuc(a1-2)[Gal(a1-3)]Gal(b1-3)GlcNAc
In short: as §1

[22] = target: Fuc(a1-2)[Gal(a1-3)]Gal(b1-3)GlcNAc(b1-2)Man(a1-3)[Fuc(a1-2)[Gal(a1-3)]Gal(b1-3)GlcNAc(b1-2)Man(a1-6)]Man(b1-4)GlcNAc(b1-4)GlcNAc
In short: as §1

[23] = target: Fuc(a1-2)[Gal(a1-3)]Gal(b1-3)GlcNAc(b1-2)Man(a1-3)[Fuc(a1-2)[Gal(a1-3)]Gal(b1-3)GlcNAc(b1-2)Man(a1-6)]Man(b1-4)GlcNAc(b1-4)[Fuc(a1-6)]GlcNAc
In short: as §1

[24] = target: Fuc(a1-2)[Gal(a1-3)]Gal(b1-3)GlcNAc(b1-3)GalNAc
In short: as §1

[25] = target: Fuc(a1-2)[Gal(a1-3)]Gal(b1-3)GlcNAc(b1-6)GalNAc
In short: as §1

[26] = target: Fuc(a1-2)[Gal(a1-3)]Gal(b1-4)Glc
In short: as §1

[27] = target: Fuc(a1-2)[Gal(a1-3)]Gal(b1-4)GlcNAc
In short: as §1

[28] = target: Fuc(a1-2)[Gal(a1-3)]Gal(b1-4)GlcNAc(b1-2)Man
In short: as §1

B1: R2-fiber (Pseudomonas aeruginosa), Q9S576 (protein)
chain: HHHHHHKVAKDLVVSLAYQVRTEDGVLVDESPVSAPLDYLHGHGSLISGLETALEGHEVGDKFDVAVGANDAYGQYDENLVQRVPKDVFMGVDELQVGMRFLAETDQGPVPVEITAVEDDHVVVDGNHMLAGQNLKFNVEVVAIREATEEELAHGHVHGAHDHHHDHDHDGCCGGHGHDHGHEHGGEGCCGGKGNGGCGCHENLYFQGVTAGMALAATDIPGLDASKLVSGVLAEQRLPVFARGLATAVSNSSDPNTATVPLMLTNHANGPVAGRYFYIQSMFYPDQNGNASQIATSYNATSEMYVRVSYAANPSIREWLPWQRCDIGGSFTKEADGELPGGVNLDSMVTSGWWSQSFTAQAASGANYPIVRAGLLHVYAASSNFIYQTYQAYDGESFYFRCRHSNTWFPWRRMWHGGDFNPSDYLLKSGFYWNALPGKPATFPPSAHNHDVGQLTSGILPLARGGVGSNTAAGARSTIGAGVPATASLGASGWWRDNDTGLIRQWGQVTCPADADASITFPIPFPTLCLGGYANQTSAFHPGTDASTGFRGATTTTAVIRNGYFAQAVLSWEAFGR
glycan array binding signal (z-score) [1]: -1.36 | glycan array binding signal (z-score) [2]: 0.478 | glycan array binding signal (z-score) [3]: 0.212 | glycan array binding signal (z-score) [4]: -1.17 | glycan array binding signal (z-score) [5]: 0.197 | glycan array binding signal (z-score) [6]: -0.579 | glycan array binding signal (z-score) [7]: -0.895 | glycan array binding signal (z-score) [8]: 0.895 | glycan array binding signal (z-score) [9]: 0.171 | glycan array binding signal (z-score) [10]: 0.052 | glycan array binding signal (z-score) [11]: -0.433 | glycan array binding signal (z-score) [12]: -0.5 | glycan array binding signal (z-score) [13]: 1.39 | glycan array binding signal (z-score) [14]: -0.021 | glycan array binding signal (z-score) [15]: 0.037 | glycan array binding signal (z-score) [16]: -0.964 | glycan array binding signal (z-score) [17]: 0.575 | glycan array binding signal (z-score) (Fuc(a1-2)Gal6S(b1-4)Glc): -0.893 | glycan array binding signal (z-score) [18]: -0.825 | glycan array binding signal (z-score) (Fuc(a1-2)[Gal(a1-3)]Gal): -0.066 | glycan array binding signal (z-score) [19]: -0.343 | glycan array binding signal (z-score) [20]: -0.281 | glycan array binding signal (z-score) [21]: -0.373 | glycan array binding signal (z-score) [22]: 0.716 | glycan array binding signal (z-score) [23]: -0.392 | glycan array binding signal (z-score) [24]: -0.926 | glycan array binding signal (z-score) [25]: -0.263 | glycan array binding signal (z-score) [26]: -0.47 | glycan array binding signal (z-score) [27]: -0.962 | glycan array binding signal (z-score) [28]: -0.343
